Drawing on patent US20200355672, this text covers functional effect for eight sequences.

The chains behind the UniProt entries cited, without tags or fusion partners. Where a name states a change or a piece, a line headed by the entry shows the natural chain unless it says otherwise.
UniProt Q15434: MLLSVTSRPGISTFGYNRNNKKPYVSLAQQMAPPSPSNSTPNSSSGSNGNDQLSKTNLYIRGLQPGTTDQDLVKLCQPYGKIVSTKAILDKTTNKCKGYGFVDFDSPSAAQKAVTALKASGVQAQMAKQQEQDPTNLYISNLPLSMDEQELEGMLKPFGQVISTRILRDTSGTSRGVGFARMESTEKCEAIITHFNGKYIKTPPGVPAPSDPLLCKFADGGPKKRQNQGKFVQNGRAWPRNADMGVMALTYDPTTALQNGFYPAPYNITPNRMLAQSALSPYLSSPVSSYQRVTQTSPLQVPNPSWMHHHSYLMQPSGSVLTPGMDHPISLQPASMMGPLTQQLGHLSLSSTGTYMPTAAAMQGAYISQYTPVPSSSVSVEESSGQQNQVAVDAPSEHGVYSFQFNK
UniProt P29558: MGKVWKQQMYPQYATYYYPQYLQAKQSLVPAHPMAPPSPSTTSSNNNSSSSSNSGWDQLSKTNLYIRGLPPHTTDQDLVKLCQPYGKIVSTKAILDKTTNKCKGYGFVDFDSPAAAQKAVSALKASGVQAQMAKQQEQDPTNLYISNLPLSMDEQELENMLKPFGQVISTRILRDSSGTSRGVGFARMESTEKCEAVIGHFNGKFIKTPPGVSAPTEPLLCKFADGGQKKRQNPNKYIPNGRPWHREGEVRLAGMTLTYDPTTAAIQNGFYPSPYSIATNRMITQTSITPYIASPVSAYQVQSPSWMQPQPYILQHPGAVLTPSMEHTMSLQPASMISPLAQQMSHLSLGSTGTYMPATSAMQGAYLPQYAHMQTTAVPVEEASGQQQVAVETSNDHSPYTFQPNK
UniProt Q6XE24: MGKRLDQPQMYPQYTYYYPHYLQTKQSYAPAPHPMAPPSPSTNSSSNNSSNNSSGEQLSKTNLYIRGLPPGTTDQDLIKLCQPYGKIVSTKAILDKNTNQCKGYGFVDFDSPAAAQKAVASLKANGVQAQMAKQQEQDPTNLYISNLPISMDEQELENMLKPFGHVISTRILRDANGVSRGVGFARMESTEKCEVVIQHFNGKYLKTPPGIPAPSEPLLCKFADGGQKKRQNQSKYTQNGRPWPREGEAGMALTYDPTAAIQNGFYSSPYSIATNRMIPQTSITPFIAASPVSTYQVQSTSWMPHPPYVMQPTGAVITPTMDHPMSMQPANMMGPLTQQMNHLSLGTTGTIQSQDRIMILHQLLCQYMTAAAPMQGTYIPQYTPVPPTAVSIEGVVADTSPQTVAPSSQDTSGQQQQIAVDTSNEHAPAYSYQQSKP

What all share (assay): activity in cells
For data set [1], the target named is RBMS2 (Homo sapiens) (UniProt Q15434). To be noted: protein in cells, protein details: FLAG.
The target in data set [2] is RBMS1 (Homo sapiens) (UniProt P29558). Conditions: luciferase increased, HEK293T; protein in cells.
In data set [3] the target is RBMS3 (Homo sapiens) (UniProt Q6XE24). Conditions: luciferase increased, HEK293T; protein in cells.

For some assays here: A negative result means that nothing was seen under these conditions. The exact form of at least one protein or probe is not confirmed.

Turning to “ACAUUACUAAUUUGAAUGGAAAACACAUGGUGUGAGUCCAAAGAAGGUGUUUUCCUGAAGAACUGUCUAUUUUCUCAGUCAUUUUUAACCUCUAGAGUCACUGAUACACAGAAUAUAAUCUUAUUUAUACCUCAGUUUGCAUAUUUUUUUACUAUUUAGAAUGUAGCCCUUUUUGUACUGAUAUAAUUUAGUUCCACAAAUGGUGGGUACAAAAAGUCAAGUUUGUGGCUUAUGGAUUCAUAUAGGCCAGAGUUGCAAAGAUCUUUUCCAGAGUAUGCAACUCUGACGUUGAUCCCAGAGAGCAGCUUCAGUGACAAACAUAUCCUUUCAAGACAGAAAGAGACAGGAGACAUGAGUCUUUGCCGGAGGAAAAGCAGCUCAAGAACACAUGUGCAGUCACUGGUGUCACCCUGGAUAGGCAAGGGAUAACUCUUCUAACACAAAAUAAGUGUUUUAUGUUUGGAAUAAAGUCAACCUUGUUUCUACUGUUUUAUACACUUUCAAAAAAAAAAAAAAAAAAAAAAAAAA [MMP1 3'UTR]”, the functional effect entry in data set [1] (luciferase increased, HEK293T) is “active”. Same read-out and setting: then “AUGCUACCUGGGUUUCCAGGGCACACCUAGACAAACAAGGGAGAAGAGUGUCAGAAUCAGAAUCAUGGAGAAAAUGGGCGGGGGUGGUGUGGGUGAUGGGACUCAUUGUAGAAAGGAAGCCUUGCUCAUUCUUGAGGAGCAUUAAGGUAUUUCGAAACUGCCAAGGGUGCUGGUGCGGAUGGACACUAAUGCAGCCACGAUUGGAGAAUACUUUGCUUCAUAGUAUUGGAGCACAUGUUACUGCUUCAUUUUGGAGCUUGUGGAGUUGAUGACUUUCUGUUUUCUGUUUGUAAAUUAUUUGCUAAGCAUAUUUUCUCUAGGCUUUUUUCCUUUUGGGGUUCUACAGUCGUAAAAGAGAUAAUAAGAUUAGUUGGACAGUUUAAAGCUUUUAUUCGUCCUUUGACAAAAGUAAAUGGGAGGGCAUUCCAUCCCUUCCUGAAGGGGGACACUCCAUGAGUGUCUGUGAGAGGCAGCUAUCUGCACUCUAAACUGCAAACAGAAAUCAGGUGUUUUAAGACUGAAUGUUUUAUUUAUCAAAAUGUAGCUUUUGGGGAGGGAGGGGAAAUGUAAUACUGGAAUAAUUUGUAAAUGAUUUUAAUUUUAUAUUCAGUGAAAAGAUUUUAUUUAUGGAAUUAACCAUUUAAUAAAGAAAUAUUUACCUAAUAUCUGAGUGUAUGCCAUUCGGUAUUUUUAGAGGUGCUCCAAAGUCAUUAGGAACAACCUAGCUCACGUACUCAAUUAUUCAAACAGGACUUAUUGGGAUACAGCAGUGAAUUAAGCUAUUAAAAUAAGAUAAUGAUUGCUUUUAUACCUUCAGUAGAGAAAAGUCUUUGCAUAUAAAGUAAUGUUUAAAAAACAUGUAUUGAACACGACAUUGUAUGAAGCACAAUAAAGAUUCUGAAGCUAAAUUUGUGAUUU [CYR61 3'UTR]”, with “active”.

With “CAUGGGCACCUCAGAUUGUUGUUGUUAAUGGGCAUUCCUUCUUCUGGUCAGAAACCUGUCCACUGGGCACAGAACUUAUGUUGUUCUCUAUGGAGAACUAAAAGUAUGAGCGUUAGGACACUAUUUUAAUUAUUUUUAAUUUAUUAAUAUUUAAAUAUGUGAAGCUGAGUUAAUUUAUGUAAGUCAUAUUUAUAUUUUUAAGAAGUACCACUUGAAACAUUUUAUGUAUUAGUUUUGAAAUAAUAAUGGAAAGUGGCUAUGCAGUUUG [IL-6 3'UTR (NM_000600.4 755-1023)]”, the functional effect result in data set [2] is “active”; in data set [1] (luciferase increased, HEK293T), “active”; in data set [3], “active”.

On to “CAUGGGCACCUCAGAUUGUUGUUGUUAAUGGGCAUUCCUUCUUCUGGUCAGAAACCUGUCCACUGGGCACAGAACUUAUGUUGUUCUCUAUGGAGAACUAAAAGUAUGAGCGUUAGGACACUAUUUUAAUUAUUUUUAAUUUAUUAAUAUUUAAAUAUGUGAAGCUGAGUUAAUUUAUGUAAGUCAUAUUUAUAUUUUUAAGAAGUACCACUUGAAACAUUUUAUGUAUUAGUUUUGAAAUAAUAAUGGAAAGUGGCUAUGCAGUUUGAAUAUCCUUUGUUUCAGAGCCAGAUCAUUUCUUGGAAAGUGUAGGCUUACCUCAAAUAAAUGGCUAACUUAUACAUAUUUUUAAAGAAAUAUUUAUAUUGUAUUUAUAUAAUGUAUAAAUGGUUUUUAUACCAAUAAAUGGCAUUUUAAAAAAUUCAGCAAAAAAAAAAAAAAAAAAA [IL-6 3'UTR reporter]”, for which, in data set [1] (luciferase increased, HEK293T), the functional effect entry is “active”. As for “GGAUCCACAAGUCCUUGUUCCACUGUGCCUUGGUUUCUCCUUUAUUUCUAAGUGGAAAAAGUAUUAGCCACCAUCUUACCUCACAGUGAUGUUGUGAGGACAUGUGGAAGCACUUUAAGUUUUUUCAUCAUAACAUAAAUUAUUUUCAAGUGUAACUUAUUAACCUAUUUAUUAUUUAUGUAUUUAUUUAAGCAUCAAAUAUUUGUGCAAGAAUUUGGAAAAAUAGAAGAUGAAUCAUUGAUUGAAUAGUUAUAAAGAUGUUAUAGUAAAUUUAUUUUAUUUUAGAUAUUAAAUGAUGUUUUAUUAGAUAAAUUUCAAUCAGGGUUUUUAGAUUAAACAAACAAACAAUUGGGUACC [IL-8 3'UTR (NM_000584.3 936-1293)]”, the functional effect result in data set [2] and in data set [3] was “active” in each case.

Consider “GGUCCCCAGGGAGGAAACGGGCACCACCCGCUUUCUUGCUGGUUGUCAUUUUUGCAGUAGAGUCAUCUCCAUCAGCUGUAAGAAGAGACUGGGAAGAUAGGCUCUGCACAGAUGGAUUUGCCUGUGCCACCCACCAGGGCGAACGACAAUAGCUUUACCCUCAGGCAUAGGCCUGGGUGCUGGCUGCCCAGACCCCUCUGGCCAGGAUGGAGGGGUGGUCCUGACUCAACAUGUUACUGACCAGCAACUUGUCUUUUUCUGGACUGAAGCCUGCAGGAGUUAAAAAGGGCAGGGCAUCUCCUGUGCAUGGGUGAAGGGAGAGCCAGCUCCCCCGACGGUGGGCAUUUGUGAGGCCCAUGGUUGAGAAAUGAAUAAUUUCCCAAUUAGGAAGUGUAACAGCUGAGGUCUCUUGAGGGAGCUUAGCCAAUGUGGGAGCAGCGGUUUGGGGAGCAGAGACACUAACGACUUCAGGGCAGGGCUCUGAUAUUCCAUGAAUGUAUCAGGAAAUAUAUAUGUGUGUGUAUGUUUGCACACUUGUGUGUGGGCUGUGAGUGUAAGUGUGAGUAAGAGCUGGUGUCUGAUUGUUAAGUCUAAAUAUUUCCUUAAACUGUGUGGACUGUGAUGCCACACAGAGUGGUCUUUCUGGAGAGGUUAUAGGUCACUCCUGGGGCCUCUUGGGUCCCCCACGUGACAGUGCCUGGGAAUGUAUUAUUCUGCAGCAUGACCUGUGACCAGCACUGUCUCAGUUUCACUUUCACAUAGAUGUCCCUUUCUUGGCCAGUUAUCCCUUCCUUUUAGCCUAGUUCAUCCAAUCCUCACUGGGUGGGGUGAGGACCACUCCUGUACACUGAAUAUUUAUAUUUCACUAUUUUUAUUUAUAUUUUUGUAAUUUUA [PLAU 3'UTR]”, for which, in data set [1] (luciferase increased, HEK293T), the functional effect result is reported as “active”.

On to “GUACUGCCCGUGCAAAUCCCACAACACUGAAUGCAAAGUAGCAAUUUCCAUAGUCACAGUUAGGUAGCUUUAGGGCAAUAUUGCCAUGGUUUUACUCAUGUGCAGGUUUUGAAAAUGUACAAUAUGUAUAAUUUUUAAAAUGUUUUAUUAUUUUGAAAAUAAUGUUGUAAUUCAUGCCAGGGACUGACAAAAGACUUGAGACAGGAUGGUUACUCUUGUCAGCUAAGGUCACAUUGUGCCUUUUUGACCUUUUCUUCCUGGACUAUUGAAAUCAAGCUUAUUGGAUUAAGUGAUAUUUCUAUAGCGAUUGAAAGGGCAAUAGUUAAAGUAAUGAGCAUGAUGAGAGUUUCUGUUAAUCAUGUAUUAAAACUGAUUUUUAGCUUUACAAAUAUGUCAGUUUGCAGUUAUGCAGAAUCCAAAGUAAAUGUCCUGCUAGCUAGUUAAGGAUUGUUUUAAAUCUGUUAUUUUGCUAUUUGCCUGUUAGACAUGACUGAUGACAUAUCUGAAAGACAAGUAUGUUGAGAGUUGCUGGUGUAAAAUACGUUUGAAAUAGUUGAUCUACAAAGGCCAUGGGAAAAAUUCAGAGAGUUAGGAAGGAAAAACCAAUAGCUUUAAAACCUGUGUGCCAUUUUAAGAGUUACUUAAUGUUUGGUAACUUUUAUGCCUUCACUUUACAAAUUCAAGCCUUAGAUAAAAGAACCGAGCAAUUUUCUGCUAAAAAGUCCUUGAUUUAGCACUAUUUACAUACAGGCCAUACUUUACAAAGUAUUUGCUGAAUGGGGACCUUUUGAGUUGAAUUUAUUUUAUUAUUUUUAUUUUGUUUAAUGUCUGGUGCUUUCUGUCACCUCUUCUAAUCUUUUAAUGUAUUUGUUUGCAAUUUUGGGGUAAGACUUUUUUUAUGAGUACUUUUUCUUUGAAGUUUUAGCGGUCAAUUUGCCUUUUUAAUGAACAUGUGAAGUUAUACUGUGGCUAUGCAACAGCUCUCACCUACGCGAGUCUUACUUUGAGUUAGUGCCAUAACAGACCACUGUAUGUUUACUUCUCACCAUUUGAGUUGCCCAUCUUGUUUCACACUAGUCACAUUCUUGUUUUAAGUGCCUUUAGUUUUAACAGUUCACUUUUUACAGUGCUAUUUACUGAAGUUAUUUAUUAAAUAUGCCUAAAAUACUUAAAUCGGAUGUCUUGACUCUGAUGUAUUUUAUCAGGUUGUGUGCAUGAAAUUUUUAUAGAUUAAAGAAGUUGAGGAAAAGCAAAAAAAAAA [ITGB1 3'UTR]”, for which the functional effect entry in data set [1] (luciferase increased, HEK293T) is reported as “active”. Turning to “UAUUUUAAUUAUUUUUAAGGGAUUAAUAGGGAAAUAUGUGAAGCUGAGUUAAGGGAUGUAAGUCAUAGGGA [IL-6 3'UTR ARE mutant]”, the functional effect entry in data set [1] (no luciferase increase, U to G in ARE, variant of IL-6 3'UTR reporter) is “not active”.
